Experimental data from PubChem BioAssay AID248 (DTP/NCI, 2004).
The list is a part of this screen's results and no random one: it gathers tests that were run many times, whatever their T/C, doses with no T/C, and many T/C values between a quarter and a half above the control. Other doses and runs of a compound stand elsewhere. T/C gives the treated animals as a percentage of the vehicle group. Some doses have a count of surviving animals in place of a T/C: the source holds a T/C of zero for them, seemingly a mark for toxic or unscored doses. Some survivor counts are full or nearly so, which does not show that the dose was tolerated: survival well below the control is almost never listed, so the zero probably covers shortened survival too. Survivors were counted at the toxicity check, usually on the fifth day, unless a day is given; later deaths do not show. Schedules are NCI's codes, read here as Q, the interval in days (D) or hours (H), X, the number of doses. For survival time, the PubChem record calls one and a half times the control and up active, and a quarter to a half above the control has no call in these data; cut-offs in other NCI protocols can differ. Some T/C values are followed by the survivors on the day toxicity was checked, most often the fifth; where none is given, no animal had died by that day.

System: L1210 leukemia ip in BDF1 mice, survival T/C
Assay: NCI In Vivo Anticancer Drug Screen. Data for tumor model L1210 Leukemia (intraperitoneal) in B6D2F1 (BDF1) mice
Conditions: T/C endpoint: mean survival time, higher T/C = longer survival
[1] = dose: 100.0 mg/kg/injection, schedule: Q01DX001 (ip), vehicle: saline with Tween-80
[2] = dose: 200.0 mg/kg/injection, schedule: Q01DX001 (ip), vehicle: saline with Tween-80
[3] = dose: 400.0 mg/kg/injection, schedule: Q01DX001 (ip), vehicle: saline with Tween-80
[4] = dose: 400.0 mg/kg/injection, schedule: Q04DX003 (ip), vehicle: saline with Tween-80
[5] = dose: 400.0 mg/kg/injection, schedule: Q01DX009 (ip), vehicle: Klucel (hydroxypropylcellulose) (HPC)
[6] = dose: 400.0 mg/kg/injection, schedule: Q04DX003 (ip), vehicle: Klucel (hydroxypropylcellulose) (HPC)
[7] = dose: 100.0 mg/kg/injection, schedule: Q04DX003 (ip), vehicle: Klucel (hydroxypropylcellulose) (HPC)
[8] = dose: 200.0 mg/kg/injection, schedule: Q04DX003 (ip), vehicle: Klucel (hydroxypropylcellulose) (HPC)
[9] = dose: 200.0 mg/kg/injection, schedule: Q01DX001 (ip), vehicle: saline
[10] = dose: 400.0 mg/kg/injection, schedule: Q01DX001 (ip), vehicle: saline
[11] = dose: 300.0 mg/kg/injection, schedule: Q01DX001 (ip), vehicle: saline
[12] = dose: 50.0 mg/kg/injection, schedule: Q01DX001 (ip), vehicle: saline
[13] = dose: 100.0 mg/kg/injection, schedule: Q01DX001 (ip), vehicle: saline

For COC(=O)C(CC/C(=N\Nc1ccc([N+](=O)[O-])cc1[N+](=O)[O-])c1ccccc1)C(=O)OC, the survivor count [1] was 6 of 6, the survivor count [2] was 6 of 6 and the survivor count [3] was 6 of 6.
In the case of N=C(N)Sc1cc(O)ccc1O, the survivor count (dose: 400.0 mg/kg/injection, schedule: Q04DX003 (ip), vehicle: alcohol) is reported as 4 of 6.
For CCCCCCCCCCCCCCCCCCNC(=O)Nc1ccccc1[N+](=O)[O-], the survivor count (dose: 200.0 mg/kg/injection, schedule: Q01DX009 (ip), vehicle: DMSO) was 4 of 6 and the survivor count (dose: 400.0 mg/kg/injection, schedule: Q04DX003 (ip), vehicle: DMSO) was 5 of 6.
With COC1(OC)C2CCC1(Cl)C(Cl)=C2Cl (stereo not drawn) the survivor count [4] was 5 of 6.
With Cc1ccc(CCCC(CC(=O)O)C(=O)O)cc1 (stereo not drawn) the survivor count [1] was 1 of 3, the survivor count [2] was 1 of 3 and the survivor count [3] was 0 of 3.
For O=C(O)/C(=C\c1ccccc1)c1cccc2ccccc12, the survivor count [5] was 0 of 6.
N#CC1(Nc2ccc(-c3ccc(NC4(C#N)CCCC4)cc3)cc2)CCCC1 was tested, and the survivor count (dose: 200.0 mg/kg/injection, schedule: Q01DX001 (ip), vehicle: carboxymethylcellulose (CMC)) was 4 of 4.
COC(=O)C1CC2c3[nH]c4ccccc4c3CCN2C1 (stereo not drawn) was tested, and the survivor count [6] was 6 of 6.
For CCCCc1c(F)cccc1C(=O)O, the survivor count [7] was 3 of 6, the survivor count [8] was 0 of 6 and the survivor count [6] was 2 of 6.
With C=C1C(=O)OC2/C=C(/CO)C3OC3C3OC3(C)CC(OC(=O)/C(C)=C\COC(C)=O)C12 (stereo not drawn) the survivor count [8] was 1 of 6 and the survivor count [6] was 2 of 6.
COc1cc(NS(C)(=O)=O)ccc1Nc1c2cccc(C)c2nc2c(C)cccc12 was tested, and the T/C (dose: 6.25 mg/kg/injection, schedule: Q01DX009 (ip), vehicle: water) was 140 % of control, the T/C (dose: 12.5 mg/kg/injection, schedule: Q01DX009 (ip), vehicle: saline) was 126 % of control and the T/C (dose: 25.0 mg/kg/injection, schedule: Q01DX001 (ip), vehicle: water) was 144 % of control. For the same compound, the T/C (dose: 50.0 mg/kg/injection, schedule: Q01DX009 (ip), vehicle: water) was 125 % of control, the T/C [9] was 127 % of control and the survivor count (dose: 200.0 mg/kg/injection, schedule: Q01DX009 (ip), vehicle: water) was 10 of 10. The T/C [10] was 140 % of control and the survivor count (dose: 400.0 mg/kg/injection, schedule: Q01DX009 (ip), vehicle: water) was 8 of 10.
N#Cc1cc[n+](Cc2ccccc2)cc1 was tested, and the survivor count [11] was 1 of 6.
With Cc1cccc(C)c1N(C=O)N=O the survivor count [10] was 0 of 4.
With CC(=O)[O][Hg][c]1c(C)c(C)c(C)c(C)c1C the survivor count (dose: 100.0 mg/kg/injection, schedule: Q04DX003 (ip), vehicle: saline with Tween-80) was 4 of 6, the survivor count (dose: 200.0 mg/kg/injection, schedule: Q04DX003 (ip), vehicle: saline with Tween-80) was 2 of 6 and the survivor count [4] was 0 of 6.
In the case of Cn1cnc([N+](=O)[O-])c1[Se]c1ncnc2c1c(C#N)cn2C1OC(CO)C(O)C1O (stereo not drawn), the survivor count (dose: 50.0 mg/kg/injection, schedule: Q01DX005 (ip), vehicle: saline) is reported as 1 of 6, the survivor count (dose: 100.0 mg/kg/injection, schedule: Q01DX005 (ip), vehicle: saline) is reported as 1 of 6 and the survivor count (dose: 200.0 mg/kg/injection, schedule: Q01DX005 (ip), vehicle: saline) is reported as 0 of 6.
CCCCCCCCCCCCCCCCCCNC(=S)SCCCC was tested, and the survivor count (dose: 100.0 mg/kg/injection, schedule: Q04DX002 (ip), vehicle: saline + alcohol) was 3 of 3 and the survivor count (dose: 200.0 mg/kg/injection, schedule: Q04DX002 (ip), vehicle: saline + alcohol) was 3 of 3.
N#CC(C#N)N=Nc1ccc(Cl)cc1Cl was tested, and the survivor count (dose: 10.0 mg/kg/injection, schedule: Q04DX002 (ip), vehicle: Klucel (hydroxypropylcellulose) (HPC)) was 2 of 3, the survivor count (dose: 20.0 mg/kg/injection, schedule: Q04DX002 (ip), vehicle: Klucel (hydroxypropylcellulose) (HPC)) was 0 of 3 and the survivor count (dose: 40.0 mg/kg/injection, schedule: Q04DX002 (ip), vehicle: Klucel (hydroxypropylcellulose) (HPC)) was 0 of 3.
For Cc1ccc(/C=C2/COC/C(=C\c3ccc(C)cc3)C2=O)cc1, the survivor count [12] was 6 of 6, the survivor count [13] was 6 of 6 and the survivor count [9] was 6 of 6. For the same compound, the survivor count [10] was 5 of 6.
In the case of OC1COC(n2cnc3c(=S)nc[nH]c32)C(O)C1O (stereo not drawn), the survivor count [10] is reported as 1 of 4.
With C[N+]1(C)CCOCC1 the survivor count (dose: 75.0 mg/kg/injection, schedule: Q01DX001 (ip), vehicle: saline) was 2 of 6, the survivor count (dose: 150.0 mg/kg/injection, schedule: Q01DX001 (ip), vehicle: saline) was 0 of 6 and the survivor count [11] was 0 of 6.
For C=COC(=O)NC(Cc1ccccc1)C(=O)O (stereo not drawn), the survivor count [10] was 0 of 6.
CC[n+]1cccc(NC(=O)c2ccc(NC(=O)c3ccc(C(=O)Nc4ccc(C(=O)Nc5ccc[n+](CC)c5)c(N)c4)cc3)cc2N)c1 was tested, and the T/C (dose: 1.25 mg/kg/injection, schedule: Q01DX015 (ip), vehicle: other) was 133 % of control, the T/C (dose: 6.25 mg/kg/injection, schedule: Q01DX001 (ip), vehicle: other) was 127 % of control and the T/C (dose: 12.5 mg/kg/injection, schedule: Q01DX001 (ip), vehicle: other) was 148 % of control. For the same compound, the T/C (dose: 13.0 mg/kg/injection, schedule: Q01DX015 (ip), vehicle: other) was 130 % of control.
O=S1(=O)CCCCC1Cl (stereo not drawn) was tested, and the survivor count (dose: 300.0 mg/kg/injection, schedule: Q04DX003 (ip), vehicle: other) was 2 of 6.
For Brc1cc(Br)c2[nH]c3c(Br)cc(Br)cc3c2c1, the survivor count [5] was 1 of 6.
With COC1=C(Br)[C@H](O)[C@](O)(CC#N)C=C1Br the survivor count (dose: 100.0 mg/kg/injection, schedule: Q01DX001 (ip), vehicle: Klucel (hydroxypropylcellulose) (HPC)) was 1 of 6, the survivor count [9] was 2 of 6 and the survivor count [10] was 0 of 6.
For CCCCCCCCCCCC(=O)NC(=S)Nc1ccc(S(N)(=O)=O)cc1, the survivor count [7] was 6 of 6, the survivor count [8] was 6 of 6 and the survivor count [6] was 6 of 6.
CC1(C)CCC2=C(O1)c1ccccc1C(=O)C2=O was tested, and the T/C (dose: 200.0 mg/kg/injection, schedule: Q01DX001 (ip), vehicle: Klucel (hydroxypropylcellulose) (HPC)) was 136 % of control [5 of 6 alive] and the survivor count (dose: 400.0 mg/kg/injection, schedule: Q01DX001 (ip), vehicle: Klucel (hydroxypropylcellulose) (HPC)) was 0 of 6.
In the case of CS(=O)(=O)O.[Cu+2], the survivor count (dose: 20.0 mg/kg/injection, schedule: Q01DX001 (ip), vehicle: saline) is reported as 2 of 4, the survivor count (dose: 40.0 mg/kg/injection, schedule: Q01DX001 (ip), vehicle: saline) is reported as 0 of 4 and the survivor count [12] is reported as 1 of 4. The survivor count (dose: 80.0 mg/kg/injection, schedule: Q01DX001 (ip), vehicle: saline) was 0 of 4, the survivor count [13] was 0 of 4 and the survivor count [9] was 0 of 4. The survivor count [10] was 0 of 4.
With NC1CCCc2ccccc2C1O (stereo not drawn) the survivor count [10] was 0 of 4.
With CC(C)c1ccc2c(c1)CCC1C(CN=C(N)CSS(=O)(=O)O)CCCC21C (stereo not drawn) the survivor count (dose: 300.0 mg/kg/injection, schedule: Q01DX001 (ip), vehicle: saline with Tween-80) was 0 of 6.
With CN(C)CCCC1(c2cccc3ccccc23)CCCN(C)C1=O (stereo not drawn) the survivor count [7] was 0 of 6, the survivor count [8] was 0 of 6 and the survivor count [6] was 0 of 6.
With COc1cccc2ccccc12 the survivor count [4] was 2 of 6.
With Nc1nc(N)c(N=Nc2ccccc2S(=O)(=O)O)c(=O)[nH]1 the survivor count (dose: 100.0 mg/kg/injection, schedule: Q04DX003 (ip), vehicle: saline) was 6 of 6 and the survivor count (dose: 200.0 mg/kg/injection, schedule: Q04DX003 (ip), vehicle: saline) was 3 of 6.
For CC(C)CC(CC(C)C)NCCOC(=O)Cc1ccccc1, the survivor count (dose: 300.0 mg/kg/injection, schedule: Q01DX001 (ip), vehicle: other) was 1 of 6.
